Test results reported in paper doi:10.1101/534339.
These are yes or no findings as the source states them, for the method shown. In cells and extracts the contact can be indirect. These calls come from enrichment with a bait or labelling near it, and not all partners need be listed.

Protein sequences, listed by entry. Tags and fused reporters are not part of them.
UniProt Q10006: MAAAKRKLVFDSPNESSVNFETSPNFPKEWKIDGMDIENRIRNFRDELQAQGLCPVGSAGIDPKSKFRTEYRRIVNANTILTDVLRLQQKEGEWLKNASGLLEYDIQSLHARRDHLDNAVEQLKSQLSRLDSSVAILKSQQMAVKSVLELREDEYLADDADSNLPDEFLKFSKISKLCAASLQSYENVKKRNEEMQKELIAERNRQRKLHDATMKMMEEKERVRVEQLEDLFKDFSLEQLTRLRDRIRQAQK

B1: CGH-1 (protein, UniProt Q95YF3 1-430)
chain: MSGAEQQQIVPANNGDENWKAGLNLPAKDRRFKTADVTDTKGVEFEDFCLGRDLLMGIFEKGWEKPSPIQEASIGVALTGQDILARAKNGTGKTGAYCIPVIEKIQPALKAIQAMVIVPTRELALQTSQICVELSKHIQLKVMVTTGGTDLRDDIMRLNGTVHLVIATPGRILDLMEKGVAKMEHCKTLVLDEADKLLSQDFQGILDRLINFLPKERQVMLYSATFPNTVTSFMQKHMHKPYEINLMEELTLLGVTQYYAFVQEKQKVHCLNTLFRKLQINQSIIFCNSTQRVELLAKKITEIGYSCYYIHSKMAQNHRNRVFHDFRQGNCRNLVCSDLLTRGIDIQAVNVVINFDFPRNAETYLHRIGRSGRFGHLGVAINLITYEDRHTLRRIEQELRTRIEPIPKTVDPKLYVADQQLVDAADETTA
B2: OMA-1 (protein, UniProt G5EC86 1-407)
chain: MNVNGENNEKIDEHHLESSLAGVPTLPVSPLDHAKDLSQTNPNAQIGDLVTQTANLIAIKKQLLEDIAFNQHIQSMQVRAIQSFPQNNQVAPPFQQFDPRRRGLARMQKPESYKTVICQAWLESKTCSFADNCRFAHGEEELRPTFVEPLQNNKYKTKLCDKYTTTGLCPYGKRCLFIHPDHGPNAYIRADKLLEVSQRHALADIRDQMEQHIMTNGRIAAPPLSAIQHPLEMFARPSTPDEPAAKLPLGPTPVSTRGPRYELPTKELHDAEGAMTYPPSRWPLDPSMFALDAWNMAHRPASPLDSMVLGSAPNAGSFGMLGKQNTPGGVSGYSSAGSTPSQDLSSSSLNAASAAAAAAYFANSAVAQSLLMKSVATDPMMSCNGPFSPMPGFDQLAENMTKHLNLW
B3: PGL-1 (protein, UniProt Q9TZQ3 1-730)
chain: MEANKREIVDFGGLRSYFFPNLAHYITKNDEELFNNTSQANKLAAFVLGASKDAPGDEDILEMILPNDANAAVIAAGMDVCLLLGDKFRPKFDAAAEKLSGLGHAHDLVSVIDDDKKLGMLARKAKLKKTEDAKILQALLKVIAIDDAAEKFVELTELVSQLDLDFDVYVLTKILGLISEETSDEVDIIRDNVVNAFDSCKPLLKQLMLDGPKSEPADPFISLLMDPLEESVGKVVNHIAQLFEEASKNEGDESLVLRSQLGYQLFFLIVRSLADGKREVSKKILSGIPTSVRAEVFPGLQRSVYKSAVFLGNHIIQVLLGSKKSFEDWDVVGVAKDLESAWKRRAIAELIKKFQVSILEQCFDKPVPLIPQSPLNNDAVIDNVNKALQFALWLTEFYGSENETEALGELRFLDSTSKNLLVDSFKKFVQGINSKTHVTRIVESLEKCCLSDTPSGRKSNVQPSTSQQQDSAYTKEEMTTVHNTYSVNTKAQVLNGLSDTNSSGLLVDSKDSLSLQEISCDEVDSSTLLSSSRNIGEGVTVKAVDPVPEKVNDAQQQQTVNEIEMASDANQDTSSSASPEVAPSFSTDGWDSPTKSVALPPGMQQIDEEETTVADKDSTPQPQARAETAWGSGDATPMPLPAPTNQYKVSGFGEAKVAKGFGQFAPTSSAYGGGGGRGGYGGGDRGGRGGYGGDRGGRGGYGGGDRGGRGGYGGDRGRGGYGGRGGRGGF

Molecular target: GFP::HAL-2 fusion protein (C. elegans) (UniProt Q7YWU3)
Experiment: affinity purification with mass spectrometry

| binding | Molecule |
| --- | --- |
| binds | HAL-3 (Homolog Alignment 3) (from UniProt Q10006 1-252) |
| binds | B1 |
| binds | B2 |
| binds | B3 |
